Reference: the odorant receptor screen of Mainland et al. (2015)
Values joined by “and” are separate entries in the source; they are usually repeats but may differ in a detail not shown here. Equal entries are not always repeated. The list shows a part of the results. Each value is one well over the wells without odorant, computed here; the data are noisy.

What follows are compounds tested on OR7A17 clone 1300 (assay: odorant receptor activation (CRE luciferase / Renilla) (fold of no-odor wells); higher = more activation). Details: 100 µM.

| SMILES | odorant receptor activation |
| --- | --- |
| CCCCCC(C)=O [2-heptanone] | 2.19 |
| CCCCCCC=O [heptaldehyde] | 0.909 and 1.3 and 1.06 |
| COc1cc(C)ccc1O [2-methoxy-4-methylphenol] | 1.16 |
| O=C1CCCCCCCCCCCCCCO1 [pentadecalactone] | 0.894 |
| CC(C)(C)c1ccc(CCC=O)cc1 [bourgeonal] | 0.54 |
| CCCCCCOC(=O)CCC [hexyl butyrate] | 1.02 and 1.38 |
| CC12C=CCC1C1CCC3=CC(=O)CCC3(C)C1CC2 (centres undefined) [androstadienone] | 1.18 and 1.03 |
| CC12CCC(CC1)C(C)(C)O2 [cineole] | 0.775 |
| CC1=NC(C)SC1C (centres undefined) | 1.06 |
| CCCC(=O)O [butyric acid] | 0.92 |
| COc1ccccc1O [guaiacol] | 1.29 and 1.12 |
| O=C1CCCCC1 [Cyclohexanone] | 0.871 |
| CCCCCCCOC(C)=O [heptyl acetate] | 1.4 and 0.872 |
| CC(=O)c1ccccc1 [acetophenone] | 0.938 |
| CCCCCOC(C)=O [n-amyl acetate] | 0.612 |
| CCCCCCCCC=O [nonyl aldehyde] | 1.17 |
| CC1COCc2cc3c(cc21)C(C)(C)C(C)C3(C)C (centres undefined) [galaxolide] | 3.98 and 4.43 |
| CC(C)CC(=O)O [isovaleric acid] | 0.974 |
| CC(C)C=O [isobutyraldehyde] | 1.11 and 1.02 |
| CCCCCCCC=O [octyl aldehyde] | 1.4 |
| CC1=CCC(C(C)(C)O)CC1 (centres undefined) [terpineol] | 0.789 |
| CC12C=CCC1C1CCC3CC(=O)CCC3(C)C1CC2 (centres undefined) [androstenone] | 1.23 |
| CC=Cc1ccc(O)c(OC)c1 [isoeugenol] | 1.78 and 1.29 |
| CC/C=C\CCO [cis-3-hexen-1-ol] | 0.787 |
| CCCCCCCCCCC=O [undecanal] | 0.862 |
| COC(=O)c1ccccc1 [methyl benzoate] | 1.12 |
| C=C(C)C1CC=CCC1 (centres undefined) [r-limonene] | 0.769 and 0.418 |

Each compound was assayed on OR7A5 clone 1469 in the same assay as above. Details: 100 µM.

| SMILES | odorant receptor activation |
| --- | --- |
| CCCCCC(C)=O [2-heptanone] | 0.734 and 0.581 |
| COc1cc(C)ccc1O [2-methoxy-4-methylphenol] | 0.836 |
| O=C1CCCCCCCCCCCCCCO1 [pentadecalactone] | 0.771 |
| CC(C)(C)c1ccc(CCC=O)cc1 [bourgeonal] | 0.912 |
| CCCCCCOC(=O)CCC [hexyl butyrate] | 1.1 and 0.811 |
| CC12C=CCC1C1CCC3=CC(=O)CCC3(C)C1CC2 (centres undefined) [androstadienone] | 1.27 and 1.17 |
| CC12CCC(CC1)C(C)(C)O2 [cineole] | 0.814 |
| CC1=NC(C)SC1C (centres undefined) | 1.08 and 0.938 |
| CCCC(=O)O [butyric acid] | 0.832 |
| COc1ccccc1O [guaiacol] | 0.912 and 0.987 |
| O=C1CCCCC1 [Cyclohexanone] | 0.608 and 0.778 |
| CCCCCCCOC(C)=O [heptyl acetate] | 1.03 and 1.26 |
| CC(=O)c1ccccc1 [acetophenone] | 0.991 and 0.682 |
| CCCCCOC(C)=O [n-amyl acetate] | 0.48 and 0.633 |
| CCCCCCCCC=O [nonyl aldehyde] | 1.01 |
| CC(C)CC(=O)O [isovaleric acid] | 0.831 |
| CC(C)C=O [isobutyraldehyde] | 1.06 and 1.22 |
| CCCCCCCC=O [octyl aldehyde] | 1.02 |
| CC1=CCC(C(C)(C)O)CC1 (centres undefined) [terpineol] | 0.668 |
| CC12C=CCC1C1CCC3CC(=O)CCC3(C)C1CC2 (centres undefined) [androstenone] | 1.23 |
| CC=Cc1ccc(O)c(OC)c1 [isoeugenol] | 0.897 and 1.84 |
| CC/C=C\CCO [cis-3-hexen-1-ol] | 0.84 |
| CCCCCCCCCCC=O [undecanal] | 1.01 |
| COC(=O)c1ccccc1 [methyl benzoate] | 0.536 and 0.78 |
| C=C(C)C1CC=CCC1 (centres undefined) [r-limonene] | 0.851 and 0.52 and 0.759 |

Each compound was assayed on OR7C1 clone 1299 in the same assay as above. Details: 100 µM.

| SMILES | odorant receptor activation |
| --- | --- |
| CCCCCC(C)=O [2-heptanone] | 1.8 |
| CCCCCCC=O [heptaldehyde] | 0.616 and 0.846 and 0.895 |
| COc1cc(C)ccc1O [2-methoxy-4-methylphenol] | 1 |
| O=C1CCCCCCCCCCCCCCO1 [pentadecalactone] | 0.975 |
| CC(C)(C)c1ccc(CCC=O)cc1 [bourgeonal] | 0.72 |
| CCCCCCOC(=O)CCC [hexyl butyrate] | 1.31 and 0.962 |
| CC12C=CCC1C1CCC3=CC(=O)CCC3(C)C1CC2 (centres undefined) [androstadienone] | 0.899 and 1.29 |
| CC12CCC(CC1)C(C)(C)O2 [cineole] | 1.23 |
| CC1=NC(C)SC1C (centres undefined) | 1.83 |
| CCCC(=O)O [butyric acid] | 1.32 |
| COc1ccccc1O [guaiacol] | 1.05 and 0.871 |
| O=C1CCCCC1 [Cyclohexanone] | 0.675 |
| CCCCCCCOC(C)=O [heptyl acetate] | 0.889 and 0.854 |
| CC(=O)c1ccccc1 [acetophenone] | 1.85 |
| CCCCCOC(C)=O [n-amyl acetate] | 0.56 |
| CCCCCCCCC=O [nonyl aldehyde] | 1.09 |
| CC1COCc2cc3c(cc21)C(C)(C)C(C)C3(C)C (centres undefined) [galaxolide] | 1.34 and 3.98 |
| CC(C)CC(=O)O [isovaleric acid] | 0.951 |
| CC(C)C=O [isobutyraldehyde] | 0.895 and 1.08 |
| CCCCCCCC=O [octyl aldehyde] | 1.58 |
| CC1=CCC(C(C)(C)O)CC1 (centres undefined) [terpineol] | 0.977 |
| CC12C=CCC1C1CCC3CC(=O)CCC3(C)C1CC2 (centres undefined) [androstenone] | 1.13 |
| CC=Cc1ccc(O)c(OC)c1 [isoeugenol] | 1.11 and 1.28 |
| CC/C=C\CCO [cis-3-hexen-1-ol] | 1.15 |
| CCCCCCCCCCC=O [undecanal] | 1.02 |
| COC(=O)c1ccccc1 [methyl benzoate] | 0.693 |
| C=C(C)C1CC=CCC1 (centres undefined) [r-limonene] | 0.994 and 0.355 |
